This is an account of results in patent US9387135B2, “Absorbent article” (UNICHARM CORPORATION, priority 2012, dated 2016).

Data set [1] in a line: Top sheet whiteness, visual evaluation after migration rate test. On the set-up: species or system horse; key: VG (Very Good): Virtually no redness of blood remaining, and no clear delineation between areas with and without blood.; G (Good): Slight redness of blood remaining, but difficult to delineate between areas with and without blood.; F (Fair): Slight redness of blood remaining, areas with blood discernible.; P (Poor): Redness of blood completely remaining. Particulars: skin contact surface after absorbent body migration rate test.

Data set [2] can be described thus: Absorbent body migration rate. Particulars: after second dropping of horse EDTA blood; agent coated about 5 g/m^2.

On to `CCCCCCCCCCCC(=O)OCC(O)CO` (centres unmarked) [90-L2 Lauric acid monoglyceride, lauric acid monoglyceride, reference compound], for which the Top sheet whiteness entry in data set [1] is on record as “P”. The “Absorbent body migration rate” value in data set [2] stood at 7 s. For the compound `CC(C)CCCCCCCCCCCCCCCOC(=O)CC(O)C(=O)OCCCCCCCCCCCCCCCC(C)C` (centres unmarked) [Diisostearyl malate, reference compound], in data set [1], the Top sheet whiteness entry is recorded as “F”. For the same compound, the “Absorbent body migration rate” value in data set [2] is 8 s.

In the case of `CCCCCCCCOC(=O)CCCCC(=O)OCCCCCCCC` [Dioctyl adipate], the Top sheet whiteness entry in data set [1] is recorded as “VG”. In addition, in data set [2], the “Absorbent body migration rate” value came to 6 s.

On to `CCCCCCCCCCCCOC(=O)CCCCCCCCCCC` [ELECTOL WE20, Ester of dodecanoic acid (C12) and dodecyl alcohol (C12)], for which, in data set [1], the Top sheet whiteness result is recorded as “VG”. For the same compound, the “Absorbent body migration rate” value in data set [2] was found to be 5 s. In the case of `CCCCCCCCCCCCCC(=O)OCCCCCCCCCCCC` [ELECTOL WE40, Ester of tetradecanoic acid (C14) and dodecyl alcohol (C12)], the Top sheet whiteness entry in data set [1] is listed as “VG”. `CCCCC(CC)C(=O)OCC(C)(C)COC(=O)C(CC)CCCC` (centres unmarked) [H-208BRS, Neopentyl glycol di(2-ethylhexanoate)]: the Top sheet whiteness result in data set [1] was “VG”. In data set [2], the “Absorbent body migration rate” value is 5 s. Turning to `CCCCC(CC)C(=O)OCC(COC(=O)C(CC)CCCC)(COC(=O)C(CC)CCCC)COC(=O)C(CC)CCCC` (centres unmarked) [H-408BRS, Pentaerythritol tetra(2-ethylhexanoate)], the Top sheet whiteness result in data set [1] is given as “VG”. On to `CCCCC(CC)C(=O)OCC(COC(=O)C(CC)CCCC)OC(=O)C(CC)CCCC` (centres unmarked) [PANACET 800B], for which, in data set [1], the Top sheet whiteness result was “VG”. In addition, the “Absorbent body migration rate” value in data set [2] amounted to 3 s. In the case of `CCCCCCCC(=O)OCC(COC(=O)CCCCCCC)OC(=O)CCCCCCC` [PANACET 800], in data set [1], the Top sheet whiteness entry is recorded as “VG”. In data set [2], the “Absorbent body migration rate” value amounted to 3 s. As for `CCCCOC(=O)CC(CC(=O)OCCCC)(OC(C)=O)C(=O)OCCCC` [Tributyl O-acetylcitrate], the Top sheet whiteness result in data set [1] is “VG”. The “Absorbent body migration rate” value in data set [2] came to 8 s.

As for “Caprylic acid diglyceride [Caprylic diglyceride]”, in data set [2], the “Absorbent body migration rate” value was 9 s.

For the compound Isopropyl citrate [reference compound], in data set [2], the “Absorbent body migration rate” value came to 5 s.
